From patent publication US20150164762A1, “USE OF ETHANOLAMINE PHOSPHATE” (priority 2012, published 2015)

Test system: BEAS-2B
Test: Comprehensive gene expression analysis with Whole Human Genome DNA microarray after EP treatment
Type: cell-based
Conditions: 1 mM EP, 24 hours
Protocol: Cells of the established normal human airway epithelial cell line BEAS-2B were used in the experiment. These cells were expansively cultured in 10% FBS RPMI-1640, and seeded at a density of 1×10^5/cm^2 on a 24-well plate. After 24 hours 0.1% FBS RPMI-1640 was substituted, and EP was administered to a final concentration of 0 or 1 mM (n=4). After 24 hours, the cells were used as the DNA microarray samples. RNA was extracted using a QIAGEN RNeasy Mini Kit. The DNA microarray test was performed using a Whole Human Genome DNA microarray 4×44K (Agilent), and the necessary labeling reagents and the like for the DNA microarray test were all from Agilent. The DNA microarray test data were analyzed statistically with GeneSpring (Agilent) dedicated analysis software, and gene function analysis (Gene Ontology (GO) analysis) was performed based on differential expression. The purpose of the GO analysis is to determine stochastically the degree to which gene sets with statistically significant differential expression correspond to known functional classification gene sets. […] The p-value is calculated according to the following formula.

## NCCOP(=O)(O)O [EP, Ethanolamine phosphate]
  number of probes (genes) whose expression was increased to 1.5-fold or more (p<0.05): 801
  number of probes (genes) whose expression was reduced to 1/1.5 or less (p<0.05): 1939
